{
  "source": "paper PMC10265003",
  "about": "(Royal Society Open Science, 2023)",
  "assay": "general procedure: Fmoc solid-phase peptide synthesis; Rink amide resin; DCC/6-Cl-HOBt",
  "conditions": "whole synthesis, scale of the general procedure 0.1 g resin; for final HPLC purity: 210 nm",
  "note": "Some peptides are written in HELM: one residue between dots, names in brackets for other building blocks, links after the first $.",
  "data": [
    {"substance": "(RRWQWR-4-Abz-KKLG)2-K-Ahx", "values": [
      {"measurement": "final HPLC purity", "result": 74, "unit": "%"},
      {"measurement": "difficulty met", "result": "difficulty of quantitatively completing the incorporation of the unnatural amino acid"},
      {"measurement": "isolated yield", "result": 38, "unit": "%"}
    ]},
    {"substance": "PEPTIDE1{R.R.W.Q.W.R.[Bpa].K.K.L.G.K.[Ahx].[am]}|PEPTIDE2{R.R.W.Q.W.R.[Bpa].K.K.L.G}$PEPTIDE2,PEPTIDE1,11:R2-12:R3$$$V2.0", "values": [
      {"measurement": "final HPLC purity", "result": 76, "unit": "%"},
      {"measurement": "difficulty met", "result": "difficulty of quantitatively completing the incorporation of the unnatural amino acid"},
      {"measurement": "isolated yield", "result": 68, "unit": "%"}
    ]},
    {"substance": "(RRWQWR-2-Abz-KKLG)2-K-Ahx", "values": [
      {"measurement": "final HPLC purity", "result": 76, "unit": "%"},
      {"measurement": "difficulty met", "result": "difficulty of quantitatively completing the incorporation of the unnatural amino acid"},
      {"measurement": "isolated yield", "result": 68, "unit": "%"}
    ]},
    {"substance": "PEPTIDE1{R.R.W.Q.W.R.[Dip].K.K.L.G.K.[Ahx].[am]}|PEPTIDE2{R.R.W.Q.W.R.[Dip].K.K.L.G}$PEPTIDE2,PEPTIDE1,11:R2-12:R3$$$V2.0", "values": [
      {"measurement": "final HPLC purity", "result": 86, "unit": "%"},
      {"measurement": "difficulty met", "result": "difficulty of quantitatively completing the incorporation of the unnatural amino acid"},
      {"measurement": "isolated yield", "result": 86, "unit": "%"}
    ]},
    {"substance": "PEPTIDE1{R.R.W.Q.W.R.[hF].K.K.L.G.K.[Ahx].[am]}|PEPTIDE2{R.R.W.Q.W.R.[hF].K.K.L.G}$PEPTIDE2,PEPTIDE1,11:R2-12:R3$$$V2.0", "values": [
      {"measurement": "final HPLC purity", "result": 94, "unit": "%"},
      {"measurement": "isolated yield", "result": 74, "unit": "%"}
    ]},
    {"substance": "PEPTIDE1{R.R.W.Q.W.R.F.K.K.L.G.K.[Ahx].[am]}|PEPTIDE2{R.R.W.Q.W.R.F.K.K.L.G}$PEPTIDE2,PEPTIDE1,11:R2-12:R3$$$V2.0", "values": [
      {"measurement": "final HPLC purity", "result": 95, "unit": "%"},
      {"measurement": "isolated yield", "result": 82, "unit": "%"}
    ]},
    {"substance": "PEPTIDE1{R.R.W.Q.W.R.[1-Nal].K.K.L.G.K.[Ahx].[am]}|PEPTIDE2{R.R.W.Q.W.R.[1-Nal].K.K.L.G}$PEPTIDE2,PEPTIDE1,11:R2-12:R3$$$V2.0", "values": [
      {"measurement": "final HPLC purity", "result": 91, "unit": "%"},
      {"measurement": "isolated yield", "result": 82, "unit": "%"}
    ]}
  ]
}
